The values below come from patent US20230059341A1.

Amino acid sequences for entries named in this document (tags omitted). A change or cut given only in a name is not applied to a line headed by its entry. Residues count along the entry.
UniProt P55899: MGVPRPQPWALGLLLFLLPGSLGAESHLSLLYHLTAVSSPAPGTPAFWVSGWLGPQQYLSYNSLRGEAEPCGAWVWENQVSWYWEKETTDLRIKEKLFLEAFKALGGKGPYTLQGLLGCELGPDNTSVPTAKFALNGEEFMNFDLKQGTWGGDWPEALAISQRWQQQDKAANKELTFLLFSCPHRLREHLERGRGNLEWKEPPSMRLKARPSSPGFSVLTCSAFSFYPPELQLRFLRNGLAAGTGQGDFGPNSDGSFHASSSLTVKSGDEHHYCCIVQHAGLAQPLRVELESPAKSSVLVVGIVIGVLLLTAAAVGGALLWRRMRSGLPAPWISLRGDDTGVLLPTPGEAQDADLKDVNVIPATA
UniProt Q15116, residues 25-288: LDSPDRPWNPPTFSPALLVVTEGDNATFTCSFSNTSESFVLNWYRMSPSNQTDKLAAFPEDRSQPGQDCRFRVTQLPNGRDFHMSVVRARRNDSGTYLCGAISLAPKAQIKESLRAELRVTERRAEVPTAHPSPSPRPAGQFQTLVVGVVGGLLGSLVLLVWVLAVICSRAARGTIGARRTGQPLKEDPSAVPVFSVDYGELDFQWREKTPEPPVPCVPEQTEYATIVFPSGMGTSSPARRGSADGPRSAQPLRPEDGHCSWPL

Assay [1] deals with Neonatal Fc Receptor (FcRn) (UniProt P55899). Nature of the assay: FcRn binding assay, BIACORE (SPR). (In general: SPR reads the build-up and loss of mass on a sensor chip optically.)
Assay [2] addresses PD-1 protein constitutively expressed on engineered CHO K1 cells (UniProt Q15116). Nature of the assay: MSD potency assay (competitive binding on PD-1 CHO K1 cells).

No constants are given. Whether binding was seen depends on the method and setting. Some results given as binding are weak or reduced against the parent protein; the word gives no strength.

B1: Dostarlimab, sustained agitation, 300 rpm, 25° C., 3 weeks (antibody, human IgG4 S228P, kappa, V domains shown)
VH: EVQLLESGGGLVQPGGSLRLSCAASGFTFSSYDMSWVRQAPGKGLEWVSTISGGGSYTYYQDSVKGRFTISRDNSKNTLYLQMNSLRAEDTAVYYCASPYYAMDYWGQGTTVTVSS
VL: DIQLTQSPSFLSAYVGDRVTITCKASQDVGTAVAWYQQKPGKAPKLLIYWASTLHTGVPSRFSGSGSGTEFTLTISSLQPEDFATYYCQHYSSYPWTFGQGTKLEIKR
modifications: all PTM levels within analytical variability of the control
Consider B1, for which the binding result in assay [1] and in assay [2] was “binds” in each case.
